Consider 40 compounds from the supplement of paper PMC7024190.

Structures can show the parent of a compound that is named as a salt. The list shows a part of the results. This data set is noisy: repeats of one test often differ as much as different tests do.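 A first-round screen of about ten thousand compounds sought those raising reporter output, using human embryonic kidney cells briefly transfected with a plasmid carrying a Renilla luciferase gene driven by the HSV-TK promoter.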

The test system of this test is HEK 293FT. Briefly: log relative Renilla luciferase luminescence (reporter expression vs reference, reference not stated) (log (base not stated)); higher = higher recombinant reporter expression. The note with it: 10 µM; time after transfection 48 h.
For `N=C(N)NC(=O)c1nc(Cl)c(N)nc1N` [Amiloride hydrochloride], the log was -0.0747.

`NS(=O)(=O)c1nn2cc(-c3ccccc3)nc2s1`: the log is -0.0275.

With `COc1ccc(-c2nc(-c3ccc(-c4cccc(Cl)c4)o3)[nH]c2-c2ccc(OC)cc2)cc1` [Neurodazine], the log is 0.0467.

Take `CN(C)CCCSc1ccccc1NC(=O)/C=C/c1ccccc1` [Cinanserin hydrochloride]: the log is 0.156.

In the case of `CC(=O)NCCc1c(Cc2ccccc2)[nH]c2ccccc12` [Luzindole], the log was -0.0942.

With `Cc1ccc(Sc2cncc3sc(C(N)=O)cc23)cc1`, the log was -0.115.

For the compound `CC1(C)C[C@@H]1C(=O)N/C(=C\CCCCSC[C@H](N)C(=O)O)C(=O)O` [Cilastatin sodium], the log was -0.0678.

For the compound `OCCNCCCOc1cccc(Cl)c1Cl` [2,3-DCPE hydrochloride], the log is -0.271.

As for `c1ccc(-c2n[nH]c3c2oc2ccccc23)cc1`, the log is -0.0722.

`O=C(O)Cn1c(C(=O)Nc2nc(-c3ccccc3Cl)cs2)cc2ccccc21`: the log came out at 0.0477.

On to `Cc1ccccc1N=Nc1ccc(NC(=O)c2ccnn2C)c(C)c1`, for which the log turned out to be 0.037.

For `CC(C)(CO)Cc1cc(C(C)(C)C)c(O)c(C(C)(C)C)c1`, the log is -0.0311.

For `c1ccc(C(NCc2cccnc2)(c2ccccc2)c2ccccc2)cc1`, the log came to 0.0222.

Take `Nc1[nH]nc2nnc(-c3c(-c4ccccc4)nn4ccccc34)cc12`: the log was -0.0542.

As to `O=[N+]([O-])c1ccccc1S(=O)(=O)NCC1CCC(CNCC2CCc3ccccc3C2)CC1` (stereo not given) [NTNCB hydrochloride], the log came to 0.0701.

`O=C(c1ccc(OCCN2CCCCC2)cc1)c1c(-c2ccc(O)cc2)sc2cc(O)ccc12` [Raloxifene hydrochloride]: the log was 0.00137.

Turning to `CCCCOc1cc(CC2CNC(=O)N2)ccc1OC` (stereo not given), the log was determined as 0.0915.

Turning to `Nc1nc(NCC2CCC(CNS(=O)(=O)c3cccc4ccccc34)CC2)nc2ccccc12` (stereo not given), the log amounted to 0.33.

As for `O=c1cc(N2CCOCC2)oc2c1ccc1ccccc12`, the log was -8.27e-06.

`O=C(c1ccc(F)cc1)C1CCN(CCCCc2ccccc2)CC1` [4-(4-Fluorobenzoyl)-1-(4-phenylbutyl)-piperidine oxalate]: the log was -0.0142.

On to `COc1c(C)c2c(c(O)c1C/C=C(\C)CCC(=O)O)C(=O)OC2` [Mycophenolic acid], for which the log is -0.0818.

Regarding `O=C(O)c1ccc2cc(-c3ccc(O)c(C45CC6CC(CC(C6)C4)C5)c3)ccc2c1`, the log is 0.0876.

For the compound `Nc1nc2c(ccc3ccccc32)s1`, the log is -0.0334.

Regarding `O=c1oc(-c2ccc(C(F)(F)F)cc2)nn1Cc1cc(Cl)ccc1O`, the log was -0.0171.

For `CCOC(=O)C1=C(C)NC(C)=C(C(=O)OC)C1c1cccc([N+](=O)[O-])c1` (stereo not given) [Nitrendipine], the log was found to be 0.035.

Consider `CC#CCOC(=O)C1=CCCN(C)C1` [Arecaidine but-2-ynyl ester tosylate], for which the log is 0.081.

`COC(=O)[C@H]1[C@H]2C[C@H]3c4[nH]c5ccccc5c4CCN3C[C@H]2CC[C@@H]1O` [Rauwolscine hydrochloride]: the log is -0.16.

`COCC(=O)O[C@]1(CCN(C)CCCc2nc3ccccc3[nH]2)CCc2cc(F)ccc2[C@@H]1C(C)C` [Mibefradil dihydrochloride]: the log was found to be 0.00849.

As for `O=c1ncccn1[C@@H]1O[C@H](CO)[C@@H](O)[C@H]1O` [Zebularine], the log is -0.0838.

For `COc1ccc(/C=C/C(=O)Nc2ccccc2C(=O)O)cc1OC` [Tranilast], the log is 0.00954.

In the case of `Nc1nc2c(nc(Br)n2[C@@H]2O[C@@H]3COP(=O)(O)O[C@H]3[C@H]2O)c(=O)[nH]1` [8-Bromo-cGMP, sodium salt], the log is -0.0288.

For the compound `CC(C)(C)[N+]([O-])=Cc1ccc(S(=O)(=O)O)cc1S(=O)(=O)O`, the log is -8.27e-06.

For `CCOC(=O)[C@@H](C)Oc1cccc2c(=O)n(CC(=O)Nc3ccc4c(c3)OCCO4)ccc12`, the log is -0.0182.

On to `CC[C@@H]1Cn2c(c3nc(-c4ccccc4)nc-3n(C)c2=O)N1`, for which the log is -0.022.

With `Cn1cnnc1Sc1c([N+](=O)[O-])ncn1C`, the log is -0.024.

As for `COc1ccc(NS(=O)(=O)c2ccc(I)cc2)cc1N1CCN(C)CC1`, the log was 0.134.

`OC(c1ccccc1)C1CCN(CCc2ccccc2)CC1` (stereo not given): the log is -0.085.

As to `O=C(NCCO[N+](=O)[O-])c1cccnc1` [Nicorandil], the log is -0.0452.

Turning to `Cc1nn(-c2ccccc2)c(C)c1C=NN1CCN(Cc2ccccc2)CC1`, the log amounted to 0.0728.

As for `CCN(CC)CCOCCOC(=O)C1(c2ccccc2)CCCC1` [Carbetapentane citrate], the log is 0.143.
